The results in this text go back to PubChem BioAssay AID493014 (National Center for Advancing Translational Sciences (NCATS), 2011).

Broadly, the AC50 is the midpoint of the concentration-response curve, whichever way the signal moves.

Structures are written as SMILES. Where “and” joins values, the source holds several entries; their conditions need not be identical. Identical values can stand only once. The list shows a part of the results. These are further read-outs of the screen, such as a control signal, another cell line or another target. No call is given for them. The list favours compounds with an active or inconclusive main result. Potencies come from curve fits of mixed quality, noted in brackets.

A short description of this experiment: qHTS Assay to Find Inhibitors of Chronic Active B-Cell Receptor Signaling. As to conditions: ABC-DLBCL IkBa-CBG/CBR reporter, luminescence ratio (green luciferase fused to IkBa over red control in TMD8 lymphoma cells), 4 h. In short, it runs like this:
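Cell line TMD8 (human ABC DLBCL), stably expressing tet-inducible CBG68-IkBa fusion and CBR; IMDM/0.5% FBS; cpd up to 46 uM; dox induction, 4 h, 37C/5% CO2; dual luminescence; green/red ratio; MG132 control.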
Background: In qHTS, concentration-response curves come from the screen itself.

Setting [1] is: measured here: CBR red luminescence, cell number.
Where [2] appears, read: measured here: IkBa-CBG green luminescence.

For the compound `COc1ccc(/C=N/Nc2nc3ccccc3[nH]2)cc1OC`, under setting [1], the AC50 is 29.1 µM [falling, single point].
Turning to `O=C1NC(=Nc2ccccc2)SC1Cc1cccc(Cl)c1Cl` (stereo not given), the AC50 under setting [1] was 9.2 µM [falling, partial curve, poor fit].
On to `C/C(=N\NC(=O)c1cccc(O)c1)c1cccc(NC(=O)c2ccc(F)cc2)c1`, for which the AC50 under setting [1] was 1.78 µM [falling, partial curve, poor fit].
As to `Cc1cc(Cl)ccc1NC(=S)NCCC(c1ccccc1)c1ccccc1`, under setting [1], the AC50 is 29.1 µM [falling, single point].
Same read-out and setting: the result for `O=C(c1ccc(N2C(=O)c3ccccc3C2=O)cc1)N1CCCCC1` reads 12.6 µM [rising, single point]; that for `CCN(CC)S(=O)(=O)c1ccc(Cl)c(NC(=O)COC(=O)c2cc(-c3ccccc3Cl)nc3ccccc23)c1`, 20.6 µM [rising, partial curve, poor fit].
Same read-out and setting: next, `O=C(COc1ccc2ccccc2c1Br)Nc1ccncc1`: 1.58 µM [rising, full curve]; `NS(=O)(=O)c1ccc(NC(=S)NC(=O)c2ccc(-c3ccccc3)cc2)cc1`: 29.1 µM [rising, partial curve, poor fit]; `O=[N+]([O-])c1c(C(Cl)Cl)nn(-c2ccccc2)c1N1CCCC1`: 31.6 µM [rising, single point].
Still for that read-out and setting: the result for `O=C(Oc1cc(=O)oc2ccccc12)c1ccccc1` reads 3.98 µM [falling, partial curve].
In the case of `COc1cccc(NC(=O)CN(C)C(=O)c2sc3cc(Cl)ccc3c2Cl)c1`, the AC50 under setting [1] was 29.1 µM [falling, single point].
Regarding `Cc1ccc(C(=O)Cc2nc3ccccc3[nH]2)cc1`, the AC50 under setting [1] is 35.5 µM [falling, single point].
Turning to `Fc1ccccc1Cn1nnc2c(NCc3ccccn3)ncnc21`, the AC50 under setting [1] was 10.3 µM [falling, partial curve].
Turning to `CCOC(=O)c1cc2sccc2n1Cc1ccc(C#N)cc1`, the AC50 was 6.51 µM [rising, full curve, poor fit] under setting [1] and 18.4 µM [falling, single point] under setting [2].
On to `Cc1ccc(CNC(=O)c2ccc(CSCc3ccccc3C)o2)cc1`, for which the AC50 under setting [1] was 22.4 µM [rising, partial curve, poor fit].
For the compound `c1ccc2c(c1)oc1c(NCCN3CCOCC3)ncnc12`, the AC50 under setting [1] was 0.562 µM [falling, partial curve, poor fit].
With `CCCCNC(=S)NNC(=O)CCn1cc(C)cn1`, the AC50 under setting [2] is 25.9 µM [falling, single point].
With `CC(c1nnc(SCC(=O)Nc2sccc2C#N)n1-c1ccc(Cl)cc1)N(C)C` (stereo not given), the AC50 under setting [1] is 4.11 µM [rising, full curve, poor fit].
Turning to `N#Cc1ccc(CN2CCN(C(=O)CCNS(=O)(=O)c3ccc(F)c(Cl)c3)CC2)cc1`, under setting [1], the half-maximal activity concentration (AC50) was 4.61 µM [falling, partial curve, poor fit].
On the same count and under the same terms, the result for `Fc1ccc(-c2n[nH]c(=S)n2Cc2ccccc2)cc1` reads 35.5 µM [falling, partial curve, poor fit]; that for `CC1(C)Cc2c(sc3c2c(=N)n(Cc2ccco2)c(=O)n3Cc2ccc(F)cc2)CO1`, 11.2 µM [falling, partial curve, poor fit]; that for `CCC(=O)Nc1ccc(NC(=O)c2ccccc2Cl)nc1`, 5.17 µM [falling, partial curve].
Regarding `CCOc1ccc(CCNC(=O)COC(=O)C2CCN(S(=O)(=O)c3ccc(C)c(C)c3)CC2)cc1OCC`, the AC50 under setting [1] is 0.0891 µM [rising, full curve, poor fit].
Same read-out and setting: the result for `Cc1ccnc(Nc2nc(-c3ccc(O)cc3)cs2)c1` reads 12.6 µM [falling, single point]; that for `O=C(Nc1nc2ccccc2[nH]1)c1ccc(OC(F)F)cc1`, 5.01 µM [falling, full curve].
Regarding `O=C(O)c1nc(-c2ccccc2)n(-c2cccc(C(F)(F)F)c2)n1`, the AC50 under setting [2] is 12.6 µM [rising, partial curve, poor fit].
For `FC(F)(F)c1nc(SCc2ccc(Cl)cc2Cl)n[nH]1`, under setting [1], the AC50 is 35.5 µM [falling, single point].
On the same count and under the same terms, next, `CC1Cc2cc(/C(O)=C3/C(=O)C(=O)N(Cc4cccnc4)C3c3cccc(O)c3)ccc2O1` (stereo not given): 3.16 µM [rising, single point].
Still for that read-out and setting: next, `O=C(O)COc1ccc(/C=C/c2ccc3cccc([N+](=O)[O-])c3n2)cc1`: 23.1 µM [falling, partial curve]; `CCOc1ccccc1N1CCN(C(=O)CNC(=O)c2ccccc2F)CC1`: 14.1 µM [falling, single point]; `O=S(=O)(NC1CC1)c1ccc(S(=O)(=O)N(Cc2ccccn2)C2CC2)cc1`: 3.55 µM [rising, single point].
On the same count and under the same terms, the result for `Cc1ccc(OCC(=O)Nc2ccc(F)cc2)cc1C` reads 16.4 µM [falling, partial curve, poor fit].
As for `O=Cc1ccccc1OCCOc1ccccc1C=O`, the AC50 runs as follows: under setting [1], 0.146 µM [rising, partial curve, poor fit]; under setting [2], 16.4 µM [falling, partial curve].
As to `Cc1c(/C(O)=C2/C(=O)C(=O)N(Cc3cccnc3)C2c2ccccn2)cnn1-c1ccccc1` (stereo not given), the half-maximal activity concentration (AC50) under setting [1] is 11.2 µM [rising, partial curve, poor fit].
As to `Cc1cc(C(=O)NNC(=O)c2ccc(C)c([N+](=O)[O-])c2)c(C)o1`, the AC50 under setting [1] was 4.11 µM [falling, full curve].
On the same count and under the same terms, the result for `Cc1cc(C)c2c(N)c(C(=O)c3ccc(Cl)c(Cl)c3)sc2n1` reads 0.251 µM [falling, full curve, poor fit]; that for `O=C(COC(=O)c1ccc(Br)o1)NCCc1ccccc1`, 25.1 µM [rising, single point].
Still for that read-out and setting: the result for `O=C1[C@@H]2Cc3c([nH]c4ccccc34)C(c3ccc([N+](=O)[O-])cc3)N2C(=O)CN1C1CC1` (stereo not given in full) reads 17.8 µM [falling, single point]; that for `CN(C)N1C(N)=C(C#N)C(c2ccccc2F)C2=C1CC(C)(C)CC2=O` (stereo not given), 3.55 µM [falling, single point].
Still for that read-out and setting: the result for `O=C(Nc1ccc(S(=O)(=O)Nc2nccs2)cc1)c1cc(-c2ccccc2Cl)nc2ccccc12` reads 10 µM [falling, partial curve]; that for `COc1ccc(NC(=O)c2ccc(CN3CCN(c4ccccc4)CC3)cc2)cc1OC`, 23.1 µM [falling, partial curve, poor fit]; that for `COC(=O)N1C(=O)[C@](c2ccccc2)(C2CCCC2)N1C(=O)OC`, 35.5 µM [falling, single point].
On to `COc1ccc(/C=C/C(=O)Nc2ccccc2C(=O)O)cc1OC`, for which the AC50 under setting [1] was 1.41 µM [falling, full curve] and 891 nM [falling, full curve].
On the same count and under the same terms, the result for `Cc1ccc(SCc2[nH]nc3c2C(C(C)C)C(C#N)=C(N)O3)cc1` (stereo not given) reads 10 µM [falling, partial curve, poor fit]; that for `COc1cc(-c2cc(C(=O)Nc3cc(S(=O)(=O)N4CCOCC4)ccc3O)c3ccccc3n2)cc(OC)c1OC`, 0.731 µM [rising, full curve, poor fit]; that for `Cc1nn(CC(C)C)c2sc(C(=O)NC3CC(C)(C)NC(C)(C)C3)cc12`, 10 µM [rising, partial curve, poor fit].
Still for that read-out and setting: next, `COc1cc(/C=C2\SC(N)=NC2=O)cc(OC)c1`: 8.91 µM [falling, partial curve, poor fit].
Still for that read-out and setting: the result for `COc1cccc(OC)c1C(=O)NNC(=O)c1cccc(COc2ccc3c(c2)CCC3)c1` reads 1.12 µM [rising, partial curve]; that for `O=C(CN1CCOCC1)Nc1ccc(Br)cn1`, 0.58 µM [falling, partial curve, poor fit].
Regarding `O=C(Nc1ccc(N2CCN(C(=O)c3ccco3)CC2)c(Cl)c1)c1c(F)c(F)c(F)c(F)c1F`, the AC50 under setting [1] is 20.6 µM [falling, single point].
On the same count and under the same terms, next, `CCCc1cc(-c2ccc(O)c(OCC)c2)c(C#N)c(N)n1`: 0.164 µM [falling, partial curve, poor fit].
Still for that read-out and setting: the result for `Cc1ccccc1C(=O)NC1CCN(CC(=O)Nc2nccs2)CC1` reads 20.6 µM [falling, single point]; that for `Cc1c(C(=O)NCc2ccco2)sc2nc(-c3ccccc3)cn12`, 3.66 µM [rising, partial curve].
The same measure, in the same setting: the result for `Cc1ccccc1CNC(=O)CN(c1cccc(C)c1C)S(C)(=O)=O` reads 2.51 µM [rising, partial curve]; that for `COCc1cc(C)nc(OCC(=O)N/N=C/c2ccc(OC)c(O)c2)c1C#N`, 18.4 µM [rising, partial curve].
On to `Cc1cc(C)nc(SCCC(=O)N2CCOCC2)n1`, for which the AC50 under setting [1] is 29.1 µM [rising, single point].
On the same count and under the same terms, the result for `O=C(CSc1ccc(-c2ccccn2)nn1)c1ccc(F)cc1` reads 6.31 µM [rising, single point].
On to `COCCOC(=O)C1=C(C)NC(=O)CC1c1cc2c(cc1Br)OCO2` (stereo not given), for which the AC50 under setting [2] was 25.9 µM [falling, single point].
As to `C/C(=N\NC(=O)C1(C)CC1(Br)Br)c1cccc(NC(=O)C(C)(C)C)c1` (stereo not given), the AC50 under setting [1] was 29.1 µM [rising, single point].
On the same count and under the same terms, next, `COc1cccc2c(=S)c(CCC(C)=O)c(C)[nH]c12`: 29.1 µM [falling, partial curve, poor fit].
In the case of `O=C(NC1CC1)C1CC(=O)N(c2cccc(Cl)c2)C1` (stereo not given), the AC50 under setting [1] was 5.01 µM [falling, full curve].
The same measure, in the same setting: the result for `COC(=O)c1ccc(NC(=O)c2ccccc2NS(C)(=O)=O)cc1` reads 9.2 µM [falling, partial curve, poor fit]; that for `COc1ccc(N2CCN(C(=O)Cn3c(=O)[nH]c4ccccc4c3=O)CC2)cc1`, 0.0794 µM [falling, full curve, poor fit].
